Some of the results follow.
compound: COc1ccc(Cn2ccc3cc(C)c(C(=O)NO)cc32)cc1; experiment: dose-dependent thermal stabilisation call (2D-TPP, DLPTP, 10% FDR) (binary (1 = stabilised)); higher = stabilised by the compound; settings: system: HL-60 intact cells; concentration range 0.04-10 µM
Description: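 2D thermal proteome profiling in intact HL-60 cells treated with BRD-3811 (0, 0.04, 0.29, 2, 10 uM) for 90 min at 37 C, then heated 3 min at one of 12 temperatures (42-63.9 C). Soluble protein was quantified by TMT10 MS. The value is the DLPTP call of the paper: dose-dependent thermal stabilisation over all temperatures at 10% FDR (F-test of a dose-response against a flat model); one experiment, one call per tested protein.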

By UniProt entry, the sequences of proteins in these tests, tags left out. Where a name states a change or a piece, a line headed by the entry shows the natural chain unless it says otherwise.
UniProt O95772: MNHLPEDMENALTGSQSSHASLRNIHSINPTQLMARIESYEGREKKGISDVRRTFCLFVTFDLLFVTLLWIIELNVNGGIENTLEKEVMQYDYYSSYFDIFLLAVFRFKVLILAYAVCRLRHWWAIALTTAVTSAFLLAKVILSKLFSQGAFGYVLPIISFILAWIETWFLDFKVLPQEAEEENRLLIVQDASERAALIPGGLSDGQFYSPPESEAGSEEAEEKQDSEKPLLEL
UniProt Q9P2R7: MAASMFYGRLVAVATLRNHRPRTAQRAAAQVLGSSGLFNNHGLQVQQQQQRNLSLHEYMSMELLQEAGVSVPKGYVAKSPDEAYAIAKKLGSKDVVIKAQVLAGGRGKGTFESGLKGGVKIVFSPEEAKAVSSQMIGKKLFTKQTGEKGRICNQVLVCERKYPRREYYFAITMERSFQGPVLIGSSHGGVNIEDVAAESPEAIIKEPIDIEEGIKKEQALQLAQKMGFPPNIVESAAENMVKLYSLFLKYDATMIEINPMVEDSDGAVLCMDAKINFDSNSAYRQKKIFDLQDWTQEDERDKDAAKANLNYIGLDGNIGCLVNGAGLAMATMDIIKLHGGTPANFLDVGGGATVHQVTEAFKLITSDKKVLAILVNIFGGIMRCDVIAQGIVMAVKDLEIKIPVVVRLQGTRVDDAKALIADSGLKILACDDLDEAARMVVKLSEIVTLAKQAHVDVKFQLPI
UniProt Q13586, whole entry: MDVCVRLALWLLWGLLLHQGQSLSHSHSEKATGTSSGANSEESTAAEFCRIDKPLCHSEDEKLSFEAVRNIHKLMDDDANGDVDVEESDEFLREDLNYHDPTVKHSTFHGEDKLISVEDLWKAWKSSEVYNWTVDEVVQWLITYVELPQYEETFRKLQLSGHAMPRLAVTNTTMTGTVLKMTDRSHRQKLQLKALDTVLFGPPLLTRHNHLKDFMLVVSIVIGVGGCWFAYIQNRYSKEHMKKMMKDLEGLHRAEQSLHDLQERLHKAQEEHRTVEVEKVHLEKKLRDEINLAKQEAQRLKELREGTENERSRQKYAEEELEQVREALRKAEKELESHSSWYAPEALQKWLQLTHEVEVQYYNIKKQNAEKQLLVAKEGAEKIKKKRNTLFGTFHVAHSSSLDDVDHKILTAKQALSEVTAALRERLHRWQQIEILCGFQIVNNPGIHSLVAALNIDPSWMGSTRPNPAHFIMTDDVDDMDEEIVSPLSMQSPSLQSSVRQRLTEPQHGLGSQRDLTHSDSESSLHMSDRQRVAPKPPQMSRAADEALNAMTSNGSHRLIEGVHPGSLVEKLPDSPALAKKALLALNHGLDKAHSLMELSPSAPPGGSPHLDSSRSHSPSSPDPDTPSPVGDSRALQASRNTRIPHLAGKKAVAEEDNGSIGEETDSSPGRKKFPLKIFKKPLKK
UniProt Q9NYB0: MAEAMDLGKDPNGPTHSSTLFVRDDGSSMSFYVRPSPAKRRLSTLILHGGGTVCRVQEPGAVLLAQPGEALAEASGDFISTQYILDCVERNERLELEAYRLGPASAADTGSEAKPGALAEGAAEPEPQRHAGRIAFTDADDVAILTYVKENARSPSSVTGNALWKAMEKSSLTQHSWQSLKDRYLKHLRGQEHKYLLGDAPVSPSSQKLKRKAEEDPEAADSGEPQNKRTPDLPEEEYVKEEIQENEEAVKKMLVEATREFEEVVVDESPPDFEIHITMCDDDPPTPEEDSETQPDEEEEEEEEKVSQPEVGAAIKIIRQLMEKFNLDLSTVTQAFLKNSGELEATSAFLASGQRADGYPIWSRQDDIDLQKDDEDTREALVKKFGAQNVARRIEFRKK
UniProt Q96R06: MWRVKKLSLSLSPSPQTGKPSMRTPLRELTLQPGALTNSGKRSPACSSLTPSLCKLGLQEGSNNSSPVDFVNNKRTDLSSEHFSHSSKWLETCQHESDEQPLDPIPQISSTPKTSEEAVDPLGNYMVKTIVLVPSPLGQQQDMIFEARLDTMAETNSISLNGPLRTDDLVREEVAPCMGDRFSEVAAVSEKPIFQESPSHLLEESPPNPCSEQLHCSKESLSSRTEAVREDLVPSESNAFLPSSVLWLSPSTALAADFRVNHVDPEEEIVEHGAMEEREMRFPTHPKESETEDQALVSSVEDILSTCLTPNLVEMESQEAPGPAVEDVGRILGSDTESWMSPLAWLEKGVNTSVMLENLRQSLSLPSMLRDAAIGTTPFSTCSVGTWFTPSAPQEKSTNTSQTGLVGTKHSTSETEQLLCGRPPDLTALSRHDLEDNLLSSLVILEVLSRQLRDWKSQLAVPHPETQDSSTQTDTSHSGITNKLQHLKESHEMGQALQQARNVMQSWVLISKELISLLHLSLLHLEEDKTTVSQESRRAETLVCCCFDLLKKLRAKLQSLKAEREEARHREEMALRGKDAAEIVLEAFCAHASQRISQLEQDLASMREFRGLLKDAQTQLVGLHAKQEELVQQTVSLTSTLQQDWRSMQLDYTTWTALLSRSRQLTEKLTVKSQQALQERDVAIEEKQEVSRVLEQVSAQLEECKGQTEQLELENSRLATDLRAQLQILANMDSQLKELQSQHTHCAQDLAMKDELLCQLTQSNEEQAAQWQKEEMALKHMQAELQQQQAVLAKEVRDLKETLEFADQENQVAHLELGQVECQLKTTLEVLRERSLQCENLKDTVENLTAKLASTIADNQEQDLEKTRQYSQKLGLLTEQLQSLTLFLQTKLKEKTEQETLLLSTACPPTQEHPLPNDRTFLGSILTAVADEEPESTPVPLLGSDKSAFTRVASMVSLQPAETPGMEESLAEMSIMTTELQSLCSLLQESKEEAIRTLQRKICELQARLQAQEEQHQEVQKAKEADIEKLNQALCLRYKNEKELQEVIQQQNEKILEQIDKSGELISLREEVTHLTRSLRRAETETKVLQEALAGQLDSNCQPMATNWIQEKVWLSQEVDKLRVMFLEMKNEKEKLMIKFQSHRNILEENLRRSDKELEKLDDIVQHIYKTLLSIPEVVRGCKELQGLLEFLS
UniProt Q9Y2H1: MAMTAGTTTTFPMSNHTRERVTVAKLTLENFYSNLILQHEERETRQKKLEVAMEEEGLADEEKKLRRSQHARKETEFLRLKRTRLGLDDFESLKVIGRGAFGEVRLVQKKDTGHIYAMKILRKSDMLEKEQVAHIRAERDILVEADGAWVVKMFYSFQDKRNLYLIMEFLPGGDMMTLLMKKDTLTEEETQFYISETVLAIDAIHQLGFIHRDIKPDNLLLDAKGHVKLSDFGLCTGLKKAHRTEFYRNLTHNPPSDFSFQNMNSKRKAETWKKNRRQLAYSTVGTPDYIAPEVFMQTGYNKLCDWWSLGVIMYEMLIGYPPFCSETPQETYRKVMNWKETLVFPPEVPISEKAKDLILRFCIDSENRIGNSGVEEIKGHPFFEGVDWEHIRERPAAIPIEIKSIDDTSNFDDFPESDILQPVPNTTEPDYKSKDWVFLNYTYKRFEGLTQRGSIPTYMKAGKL
UniProt P43307: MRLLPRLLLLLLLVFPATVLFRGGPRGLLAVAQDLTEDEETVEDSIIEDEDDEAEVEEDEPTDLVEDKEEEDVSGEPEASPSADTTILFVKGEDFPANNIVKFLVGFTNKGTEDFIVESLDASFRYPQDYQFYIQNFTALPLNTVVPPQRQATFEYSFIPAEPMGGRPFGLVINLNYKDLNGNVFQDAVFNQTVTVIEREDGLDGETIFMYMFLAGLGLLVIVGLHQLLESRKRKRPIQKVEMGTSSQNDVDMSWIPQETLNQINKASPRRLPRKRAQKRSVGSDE
UniProt Q8N0X7: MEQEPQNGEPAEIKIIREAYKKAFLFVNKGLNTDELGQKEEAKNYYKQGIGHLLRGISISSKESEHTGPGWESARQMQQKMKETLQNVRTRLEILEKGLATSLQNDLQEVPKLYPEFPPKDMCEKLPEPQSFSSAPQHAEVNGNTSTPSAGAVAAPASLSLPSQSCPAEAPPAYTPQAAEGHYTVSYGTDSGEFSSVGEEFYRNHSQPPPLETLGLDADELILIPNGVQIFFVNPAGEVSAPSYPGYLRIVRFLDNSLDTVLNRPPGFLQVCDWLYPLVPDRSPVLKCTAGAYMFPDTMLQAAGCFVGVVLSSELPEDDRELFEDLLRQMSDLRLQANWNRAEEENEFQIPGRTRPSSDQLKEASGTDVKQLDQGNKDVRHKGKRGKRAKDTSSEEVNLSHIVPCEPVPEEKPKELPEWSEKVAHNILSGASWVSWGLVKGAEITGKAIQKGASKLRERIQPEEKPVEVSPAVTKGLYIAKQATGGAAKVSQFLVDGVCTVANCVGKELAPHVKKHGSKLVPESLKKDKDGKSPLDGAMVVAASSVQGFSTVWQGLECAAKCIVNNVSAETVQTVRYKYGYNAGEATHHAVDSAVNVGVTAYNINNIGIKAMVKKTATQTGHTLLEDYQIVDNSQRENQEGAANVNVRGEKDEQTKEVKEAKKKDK
UniProt Q9UJZ1: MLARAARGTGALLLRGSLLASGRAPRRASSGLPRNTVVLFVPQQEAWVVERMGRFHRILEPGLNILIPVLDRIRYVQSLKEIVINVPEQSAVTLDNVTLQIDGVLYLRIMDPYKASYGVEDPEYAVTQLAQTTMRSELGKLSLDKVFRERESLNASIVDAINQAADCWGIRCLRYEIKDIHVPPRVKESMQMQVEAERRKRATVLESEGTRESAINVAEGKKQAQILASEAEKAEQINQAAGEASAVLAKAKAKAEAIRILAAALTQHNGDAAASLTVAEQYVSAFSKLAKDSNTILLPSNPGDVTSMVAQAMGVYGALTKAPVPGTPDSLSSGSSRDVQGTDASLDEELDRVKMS
UniProt Q8NHG7: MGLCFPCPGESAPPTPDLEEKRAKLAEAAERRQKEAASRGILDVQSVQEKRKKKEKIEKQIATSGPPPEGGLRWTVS
UniProt Q8NEF9: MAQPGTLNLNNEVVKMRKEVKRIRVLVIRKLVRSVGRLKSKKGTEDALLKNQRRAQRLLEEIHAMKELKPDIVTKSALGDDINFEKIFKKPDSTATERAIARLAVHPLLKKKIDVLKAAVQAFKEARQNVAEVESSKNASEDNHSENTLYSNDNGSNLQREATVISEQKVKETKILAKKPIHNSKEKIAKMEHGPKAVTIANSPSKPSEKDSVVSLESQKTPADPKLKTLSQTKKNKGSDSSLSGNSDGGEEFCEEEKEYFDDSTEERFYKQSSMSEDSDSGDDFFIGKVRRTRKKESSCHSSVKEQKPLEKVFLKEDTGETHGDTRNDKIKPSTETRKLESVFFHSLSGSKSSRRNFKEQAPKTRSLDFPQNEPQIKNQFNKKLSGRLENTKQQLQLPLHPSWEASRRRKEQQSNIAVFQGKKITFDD
UniProt Q15526: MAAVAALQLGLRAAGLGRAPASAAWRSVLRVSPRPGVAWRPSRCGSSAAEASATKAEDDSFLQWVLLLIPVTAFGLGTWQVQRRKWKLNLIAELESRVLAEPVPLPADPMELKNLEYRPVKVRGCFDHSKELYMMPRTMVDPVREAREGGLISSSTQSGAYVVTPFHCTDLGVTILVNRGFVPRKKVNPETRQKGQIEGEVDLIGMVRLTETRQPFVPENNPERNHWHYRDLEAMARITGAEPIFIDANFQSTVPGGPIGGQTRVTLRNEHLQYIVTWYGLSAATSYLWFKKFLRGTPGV
UniProt Q15813: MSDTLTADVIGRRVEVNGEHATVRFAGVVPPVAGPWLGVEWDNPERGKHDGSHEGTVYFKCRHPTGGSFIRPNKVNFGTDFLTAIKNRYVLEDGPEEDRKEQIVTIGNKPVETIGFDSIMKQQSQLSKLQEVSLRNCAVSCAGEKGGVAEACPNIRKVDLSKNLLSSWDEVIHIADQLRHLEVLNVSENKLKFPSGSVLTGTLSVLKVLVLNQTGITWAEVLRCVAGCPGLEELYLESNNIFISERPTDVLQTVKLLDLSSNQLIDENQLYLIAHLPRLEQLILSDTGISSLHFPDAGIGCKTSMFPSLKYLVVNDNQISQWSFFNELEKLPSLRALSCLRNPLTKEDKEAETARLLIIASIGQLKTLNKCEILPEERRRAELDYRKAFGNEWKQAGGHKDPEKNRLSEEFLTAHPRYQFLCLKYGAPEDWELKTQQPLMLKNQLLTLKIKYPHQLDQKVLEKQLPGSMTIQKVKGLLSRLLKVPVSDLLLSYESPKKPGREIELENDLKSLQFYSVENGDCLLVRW
UniProt P37802: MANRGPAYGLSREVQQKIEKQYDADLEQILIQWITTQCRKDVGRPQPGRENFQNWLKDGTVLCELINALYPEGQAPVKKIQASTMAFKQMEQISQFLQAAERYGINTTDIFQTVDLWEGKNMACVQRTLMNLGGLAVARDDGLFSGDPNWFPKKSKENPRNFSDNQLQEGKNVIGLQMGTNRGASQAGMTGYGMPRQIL
UniProt Q12962, whole entry: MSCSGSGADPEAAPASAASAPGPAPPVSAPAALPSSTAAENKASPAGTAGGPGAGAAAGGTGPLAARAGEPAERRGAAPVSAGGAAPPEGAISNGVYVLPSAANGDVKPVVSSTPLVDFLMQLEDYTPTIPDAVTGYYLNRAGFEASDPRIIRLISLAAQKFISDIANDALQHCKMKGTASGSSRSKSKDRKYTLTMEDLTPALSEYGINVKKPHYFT

Q: With STARD3NL (UniProt O95772) as the target, how does the “dose-dependent thermal stabilisation call” value read?
A: The value was inactive: 0.

Q: With SSR4 (UniProt P51571) as the target, how does the “dose-dependent thermal stabilisation call” value read?
A: Its value is inactive: 0.

Q: Which “dose-dependent thermal stabilisation call” value does the source give for SUCLA2 (UniProt Q9P2R7) here?
A: The value was inactive: 0.

Q: How did the “dose-dependent thermal stabilisation call” value turn out when TAX1BP1 (UniProt Q86VP1) was run?
A: Its value is inactive: 0.

Q: TAF9 (UniProt Q16594) was tested. Which “dose-dependent thermal stabilisation call” value did it give?
A: Its value is inactive: 0.

Q: TBC1D10A (UniProt Q9BXI6) was tested. Which “dose-dependent thermal stabilisation call” value did it give?
A: The value was inactive: 0.

Q: How did the “dose-dependent thermal stabilisation call” value turn out when STRN4 (UniProt Q9NRL3) was run?
A: Its value is inactive: 0.

Q: With STIM1 (UniProt Q13586) as the target, how does the “dose-dependent thermal stabilisation call” value read?
A: The value was inactive: 0.

Q: How did the “dose-dependent thermal stabilisation call” value turn out when SYF2 (UniProt O95926) was run?
A: Its value is inactive: 0.

Q: STX8 (UniProt Q9UNK0) was tested. Which “dose-dependent thermal stabilisation call” value did it give?
A: The value was inactive: 0.

Q: How did the “dose-dependent thermal stabilisation call” value turn out when TEX10 (UniProt Q9NXF1) was run?
A: Its value is inactive: 0.

Q: With TERF2IP (UniProt Q9NYB0) as the target, how does the “dose-dependent thermal stabilisation call” value read?
A: The value was inactive: 0.

Q: With SPAG5 (UniProt Q96R06) as the target, how does the “dose-dependent thermal stabilisation call” value read?
A: The value was inactive: 0.

Q: With STK38L (UniProt Q9Y2H1) as the target, how does the “dose-dependent thermal stabilisation call” value read?
A: The value was inactive: 0.

Q: With STX4 (UniProt Q12846) as the target, how does the “dose-dependent thermal stabilisation call” value read?
A: Its value is inactive: 0.

Q: Which “dose-dependent thermal stabilisation call” value does the source give for TAF9B (UniProt Q9HBM6) here?
A: Its value is inactive: 0.

Q: With SSR1 (UniProt P43307) as the target, how does the “dose-dependent thermal stabilisation call” value read?
A: Its value is inactive: 0.

Q: TAF2 (UniProt Q6P1X5) was tested. Which “dose-dependent thermal stabilisation call” value did it give?
A: Its value is inactive: 0.

Q: Which “dose-dependent thermal stabilisation call” value does the source give for STAT6 (UniProt P42226) here?
A: Its value is inactive: 0.

Q: How did the “dose-dependent thermal stabilisation call” value turn out when SPG20 (UniProt Q8N0X7) was run?
A: Its value is inactive: 0.

Q: How did the “dose-dependent thermal stabilisation call” value turn out when SSBP3 (UniProt Q9BWW4) was run?
A: The value was inactive: 0.

Q: STAT5A (UniProt P42229) was tested. Which “dose-dependent thermal stabilisation call” value did it give?
A: Its value is inactive: 0.

Q: How did the “dose-dependent thermal stabilisation call” value turn out when STOML2 (UniProt Q9UJZ1) was run?
A: The value was inactive: 0.

Q: For SVIP (UniProt Q8NHG7), which “dose-dependent thermal stabilisation call” value is on record?
A: Its value is inactive: 0.

Q: With SRGN (UniProt P10124) as the target, how does the “dose-dependent thermal stabilisation call” value read?
A: The value was inactive: 0.

Q: TCEB2 (UniProt Q15370) was tested. Which “dose-dependent thermal stabilisation call” value did it give?
A: Its value is inactive: 0.

Q: How did the “dose-dependent thermal stabilisation call” value turn out when STAG2 (UniProt Q8N3U4) was run?
A: The value was inactive: 0.

Q: With TAP1 (UniProt Q03518) as the target, how does the “dose-dependent thermal stabilisation call” value read?
A: Its value is inactive: 0.

Q: Which “dose-dependent thermal stabilisation call” value does the source give for SRFBP1 (UniProt Q8NEF9) here?
A: Its value is inactive: 0.

Q: TESC (UniProt Q96BS2) was tested. Which “dose-dependent thermal stabilisation call” value did it give?
A: Its value is inactive: 0.

Q: How did the “dose-dependent thermal stabilisation call” value turn out when SURF1 (UniProt Q15526) was run?
A: Its value is inactive: 0.

Q: TBL3 (UniProt Q12788) was tested. Which “dose-dependent thermal stabilisation call” value did it give?
A: The value was inactive: 0.

Q: How did the “dose-dependent thermal stabilisation call” value turn out when TCEA1 (UniProt P23193) was run?
A: The value was inactive: 0.

Q: With TBCE (UniProt Q15813) as the target, how does the “dose-dependent thermal stabilisation call” value read?
A: Its value is inactive: 0.

Q: How did the “dose-dependent thermal stabilisation call” value turn out when TFCP2 (UniProt Q12800) was run?
A: Its value is inactive: 0.

Q: With TAGLN2 (UniProt P37802) as the target, how does the “dose-dependent thermal stabilisation call” value read?
A: Its value is inactive: 0.

Q: SRP19 (UniProt P09132) was tested. Which “dose-dependent thermal stabilisation call” value did it give?
A: Its value is inactive: 0.

Q: TES (UniProt Q9UGI8) was tested. Which “dose-dependent thermal stabilisation call” value did it give?
A: Its value is inactive: 0.

Q: For TAPT1 (UniProt Q6NXT6), which “dose-dependent thermal stabilisation call” value is on record?
A: Its value is inactive: 0.

Q: Which “dose-dependent thermal stabilisation call” value does the source give for TAF10 (UniProt Q12962) here?
A: Its value is inactive: 0.

— the supplement of paper PMC7666118
